The list shows a part of the results. Rule as the data show it: active = 2 or more and inactive = the rest. Most values lie within the scatter of the assay; repeated measurements hardly agree.
System: Lgr5 (MarsCy1-Lgr5-EGFP, U2OS)
Experiment: cell-surface Lgr5 expression (SCi1 fluorescence, background-subtracted) relative to WT DMSO (fold of DMSO control); higher = more Lgr5 at the plasma membrane
Conditions: U2OS MarsCy1-Lgr5-EGFP stable; treatment time: overnight; library: ActiProbe-5K (TimTec); 25 µM

Compound | cell-surface Lgr5 expression
COc1ccc(/C=N\NS(C)(=O)=O)cc1OC | inactive: 1.25
Brc1cnc2nc3[nH]c4ccc(Br)cc4c3nc2c1 | inactive: 1.45
Cc1cc(=O)[nH]c(S)c1C#N | inactive: 1.33
CCCCCC1NC(=O)NC1CCCCCC(=O)O (centres undefined) | inactive: 1.57
Cc1ccc(/C=N\Nc2nncn2/N=C/c2ccc(C)o2)o1 | inactive: 1.13
O=c1[nH][nH]c(=O)n1-c1ccc2c(c1)OCO2 | inactive: 1.1
COC(=O)CCCCc1scc2[nH]c(=O)[nH]c12 | inactive: 1.38
COCn1nnc(-c2ccc(Cl)cc2)n1 | inactive: 1.02
CC(CNS(C)(=O)=O)OC12CC3CC(CC(C3)C1)C2 (centres undefined) | inactive: 1.29
CS/C(=N/C#N)Nc1ccc(OC(F)F)cc1 | inactive: 1.17
CC(C)(C)S(=O)(=O)c1ccc(S(=O)(=O)C(C)(C)C)cc1 | inactive: 1.16
Cc1cc(C)nc(NS(=O)(=O)c2cc(Cl)ccc2Cl)n1 | inactive: 1.22
Fc1ccc(NC(=S)Nc2ccc(Br)cc2)cc1 | inactive: 0.855
Cc1cc(C(=O)O)c(CSCc2cc(C(=O)O)oc2C)o1 | inactive: 1.21
COc1cc(N)ccc1-n1cnnn1 | inactive: 1.06
S=c1sc2c(N3CCc4ccccc43)ncnc2n1-c1ccccc1 | inactive: 1.12
O=S(=O)(c1ccc(Br)cc1)N1CCCC1 | inactive: 1.39
Cc1cc(/C=N\O)c(S(C)(=O)=O)s1 | inactive: 1.15
O=C(CCCC(=O)Nc1nccs1)Nc1nccs1 | inactive: 0.984
CC(C)(C)OC(=O)NC1(C(=O)O)CCN(C(=O)OC(C)(C)C)CC1 | inactive: 1.2
O=c1nc(O)c(O)cn1C1OC(CO)C(O)C1O (centres undefined) | inactive: 0.785
FC(F)(F)Oc1ccc(-n2cccn2)cc1 | inactive: 1.17
COc1ccc(S(N)(=O)=O)cc1OC | inactive: 1.01

Compound | cell-surface Lgr5 expression
CCC(CC)C(=O)Nc1nnc(C(C)C)s1 | inactive: 1.44
CN1CCN(C(=O)c2nonc2N)CC1 | inactive: 1.15
c1(/[nH]c2ccccc2[nH]1)=N/n1cnnc1 | inactive: 1.28
O=C(O)Cc1nc2[nH]c3c(c(=O)n2n1)CCCC3 | inactive: 1.25
C=CCN(CC=C)C(=O)C(CC)CCCC (centres undefined) | inactive: 1.09
O=c1[nH]nnc2ccc(Br)cc12 | inactive: 0.933
O=c1[nH]c2ccccc2c([O-])c1-[n+]1ccccc1 | inactive: 0.981
O=S(=O)(c1ccc(-n2cnnn2)cc1)c1ccc(-n2cnnn2)cc1 | inactive: 1.28
N#Cc1c(NC(=O)CCC2CCCC2)sc2c1CCCCCC2 | inactive: 1.13
Nc1cccc[n+]1Cc1ccccn1.[Br-] | inactive: 1.22
O=[N+]([O-])c1cc(Br)c2nsnc2c1Br | inactive: 0.449
c1ccc(-c2nnc(SC3CCCC3)nc2-c2ccccc2)cc1 | inactive: 0.831
CC/C(=C\c1sc2ccc(C)cc2[n+]1CCO)SC | inactive: 1.5
Nc1nonc1-c1noc(-c2cccnc2O)n1 | inactive: 0.946
N#CC1=C(N)SC(N)=C(C#N)C1c1cc(Br)ccc1F | inactive: 1.39
c1ccc(Oc2nc(Oc3ccccc3)nc(Oc3ccccc3)n2)cc1 | inactive: 0.973
O=C(O)C1CCS(=O)(=O)C1 (centres undefined) | inactive: 1.16
Cc1cn2nc([N+](=O)[O-])cc2c(=O)o1 | inactive: 1.14
COc1ccc(S(=O)(=O)c2cc(O)ccc2O)cc1 | inactive: 1.17
CC12C=CC(C)(O1)C1C(=O)NC(=O)C12 (centres undefined) | inactive: 1.33
O=[N+]([O-])c1ccc2c(c1)C1C=CCC1C(c1ccc(F)cc1)N2 (centres undefined) | inactive: 0.513
Oc1ncnc2c1sc(=S)n2-c1ccccc1 | inactive: 1.19
Cc1cc(C)c(Cc2c(C)c(/C=N\O)c(C)c(Cc3c(C)cc(C)c(/C=N\O)c3C)c2C)c(C)c1/C=N\O | inactive: 0.699

Part of the list above in order of count of non-hydrogen atoms, descending:
Compound | cell-surface Lgr5 expression
CCC(CC)C(=O)Nc1nnc(C(C)C)s1 | inactive: 1.44
CN1CCN(C(=O)c2nonc2N)CC1 | inactive: 1.15
O=c1[nH]nnc2ccc(Br)cc12 | inactive: 0.933

(list continues)

Compound | cell-surface Lgr5 expression
COc1ccc(-c2c[nH]c(=N)s2)cc1 | inactive: 1.11
c1ccc(C([C@@H]2[C@H]([C@]([C@@H]3(N2c2ccccc2C=C3))(C#N)C#N)c2c(C(F)(F)F)cccc2)=O)cc1 | inactive: 1.82
C/C=C\c1c(C)nc2sc(C#N)c(N)c2c1C | inactive: 1.2
Oc1nc(O)c2sc3nc(C4CC4)cc(C(F)(F)F)c3c2n1 | inactive: 1.01
N#CC1=C(N)OC(N)=C(C#N)C1c1cc(Br)cs1 | inactive: 1.64
C=CC[C@H]1CC=C[C@H](C)N1.Cl | inactive: 1.17
CC(C)c1cc(C(F)(F)F)nc(S[C@H]2CC(=O)[C@@H]3OC[C@H]2O3)n1 | inactive: 0.985
Oc1c(-c2ccccc2)c2nc3ccccc3nc2c2ccccc12 | inactive: 1.15
CC1(C)OC(=O)N2CCc3sccc3C21C (centres undefined) | inactive: 1.3
O=c1[nH]n2cc(-n3cc([N+](=O)[O-])cn3)cnc2c1[N+](=O)[O-] | inactive: 1.4
COc1ccc(Br)c2c1OCCO2 | inactive: 1.62
COc1ccc(OC)c(NC(=S)Nc2ccc(F)cc2)c1 | inactive: 0.867
Nc1ccc(N2CCCC2)c(C(F)(F)F)c1 | inactive: 1.22
O=S(=O)(Nc1nc2ccccc2nc1Cl)c1ccccc1 | inactive: 1.06
c1ccc2[nH]c(CCn3c4c(c5ccccc53)CCCC4)nc2c1 | inactive: 0.914
CC(C)(C)NS(=O)(=O)c1ccc(F)cc1 | inactive: 0.973
C[NH+]1CCCCC1.N#CC1=C(N)NC([S-])=C(C#N)C12CCCCC2 | inactive: 1.14
Oc1cc(-c2ccc3c(c2)OCO3)n[nH]1 | inactive: 0.937
CCN(CC)C(=O)N1CCOCC1 | inactive: 1.11
CC(C)c1ccc(/C=N/n2c(S)nnc2-c2ccc(C(C)(C)C)cc2)cc1 | inactive: 0.912
O=c1[nH]c2ccccc2n1C1=CCNCC1 | inactive: 1.05
CC(/C=N/n1c(S)nnc1-c1ccco1)=C\c1ccco1 | inactive: 1.15
Cc1ccc(/C=N\NC(=O)c2cnccn2)o1 | inactive: 1.02
